Laboratory results published in patent US20250206828A1, “ANTI-ADENOSINE RECEPTOR (A2aR) ANTIBODIES AND THE USE THEREOF” (Adept Therapeutics Inc., priority 2022, published 2025).
Where a chain is given by its changes, count along the chain named. Names and notes keep the numbering of the source. Results are given in words; binding and its absence hold for the method and conditions named. Some results given as binding are weak or reduced against the parent protein; the word gives no strength.

B1: Hu3F6-H2/Hu3F6-L3 (antibody, human IgG1, V domains shown)
VH: EVQLVQSGAEVKKPGASVKVSCKTSGFAFTSYWMNWVRQAPGQGLEWMGRIDPSDSEAHYHHKFWGRVTMTVDTSTSTVYMELSSLRSEDTAVYYCLRSLYGKGDYWGHGTTVTVSS
VL: DVVMTQSPLSLPVTLGQPASISCRSSQSLVHRNGNTYLEWYQQRPGQSPRLLIYKVSNRFSGVPDRFSGSGSGTDFTLKISRVEAEDVGVYYCYQGSHVPLTFGGGTKVEIK
notes: Human IgG1 FES (L234F, L235E, P331S) and human Ig kappa constant domains; also called Hu3F6 VH2/VL3
B2: Hu3F6-H2/Hu3F6-L5 (antibody, human IgG1, V domains shown)
VH: B1 VH
VL: B1 VL with S7T, P12S, L15P, Q42L, R44K, R50Q
notes: Human IgG1 FES (L234F, L235E, P331S) and human Ig kappa constant domains; also called Hu3F6 VH2/VL5
B3: Hu3F6-H2/Hu3F6-L4 (antibody, human IgG1, V domains shown)
VH: B1 VH
VL: B1 VL with V2I, S7T, P12S, L15P, Q42L, R44K, R50Q
notes: Human IgG1 FES (L234F, L235E, P331S) and human Ig kappa constant domains; also called Hu3F6 VH2/VL4
B4: Hu3F8-H4/Hu3F8-L4 (antibody, human IgG1, V domains shown)
VH: B1 VH with T24A, A28T, S31R, M48I, A58T, H61N, V68A, M70L, T74K, H109Q
VL: B1 VL with V2I, L15P, Q17E, L29I, R32S, Q42L, R44K, R50Q
notes: Human IgG1 FES (L234F, L235E, P331S) and human Ig kappa constant domains; also called Hu3F8 VH4/VL4
B5: Hu3F6-H2/Hu3F6-L8 (antibody, human IgG1, V domains shown)
VH: B1 VH
VL: B1 VL with L15P, Q17E, Q42L, R44K, R50Q
notes: Human IgG1 FES (L234F, L235E, P331S) and human Ig kappa constant domains; also called Hu3F6 VH2/VL8
B6: Hu3F8-H4/Hu3F8-L5 (antibody, human IgG1, V domains shown)
VH: B1 VH with T24A, A28T, S31R, M48I, A58T, H61N, V68A, M70L, T74K, H109Q
VL: B1 VL with L15P, Q17E, L29I, R32S, Q42L, R44K, R50Q
notes: Human IgG1 FES (L234F, L235E, P331S) and human Ig kappa constant domains; also called Hu3F8 VH4/VL5
B7: Hu3F8-H4/Hu3F8-L3 (antibody, human IgG1, V domains shown)
VH: B1 VH with T24A, A28T, S31R, M48I, A58T, H61N, V68A, M70L, T74K, H109Q
VL: B1 VL with L29I, R32S
notes: Human IgG1 FES (L234F, L235E, P331S) and human Ig kappa constant domains; also called Hu3F8 VH4/VL3

target: human adenosine A2A receptor (A2aR) (human, UniProt P29274 1-412); experiment: flow cytometry titration, HEK293-hA2aR cells

| binding | Binder |
| --- | --- |
| binds | B1 |
| binds | B2 |
| binds | B3 |
| binds | B4 |
| binds | B5 |
| binds | B6 |
| binds | B7 |
